Data taken from ChEMBL document CHEMBL3988442, “University of Dundee, Small-Polar-MMV Screening Library” (2021).

Sequences of proteins named here, by UniProt entry; tags and fusion partners are left off.
UniProt P9WNZ1, whole entry: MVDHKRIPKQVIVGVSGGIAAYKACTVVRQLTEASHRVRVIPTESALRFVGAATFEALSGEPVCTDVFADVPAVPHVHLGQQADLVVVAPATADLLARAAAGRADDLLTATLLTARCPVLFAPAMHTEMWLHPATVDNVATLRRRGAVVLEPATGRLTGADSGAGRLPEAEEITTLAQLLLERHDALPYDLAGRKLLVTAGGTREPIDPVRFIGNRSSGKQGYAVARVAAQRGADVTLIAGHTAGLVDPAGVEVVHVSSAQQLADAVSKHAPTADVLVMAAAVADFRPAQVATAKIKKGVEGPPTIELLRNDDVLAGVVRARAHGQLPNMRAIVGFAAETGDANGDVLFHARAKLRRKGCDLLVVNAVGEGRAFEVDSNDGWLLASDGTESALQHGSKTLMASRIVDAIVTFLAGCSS

Results are given as percent effect.
How 0% and 100% were set is not recorded. Most values in the screen are low, and negative values occur.
This is an unselected part of the compounds tested.
Two or more numbers in one place are separate tests of the same structure; such repeats can differ widely.

A: 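Cell assay of Leishmania donovani living inside macrophages; the read-out is not stated. Concentration: 30 µM. The record gives no direction; compounds that gave an IC50 in retests scored well above the rest, so higher reads as stronger inhibition. About 69,000 compounds were tested under these conditions; 1.5% (about 1,000) showed 50% or more at least once.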
B: 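Coenzyme A biosynthesis protein CoaBC, Mycobacterium tuberculosis (UniProt P9WNZ1). Enzyme assay of CoaBC with a phosphate dye (Biomol Green) read at 650 nm. Tested at 30 µM. Direction is inferred from only a few compounds that gave an IC50; most scored high, so higher reads as stronger inhibition. Most strong results did not repeat in a second test. About 67,000 compounds were tested under these conditions; 0.06% (about 40) showed 50% or more at least once.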

For Cc1cc(N2CCOC(C(F)(F)F)C2)nc(-c2ccccc2O)n1 (configuration not stated) the result was A: 16.76%; B: -0.7353%. Result for COCCN1Cc2ccccc2C2(CCN(S(C)(=O)=O)CC2)C1 was A: 15.62%; B: -10.48%. CCN1CCOCC12CCN(C(=O)C1CCCC1)CC2 gave B: 2.353%. Result for [H][C@@]12CN(Cc3ccc(OC)cc3)C[C@]1([H])OCC(=O)N2CC(N)=O was A: -17.44%. CCNC(=O)[C@@H]1C[C@H](n2cc(CC3CCCCC3)nn2)CN1 gave A: 32.05%; B: 5.141%. Result for Cc1noc(CN(C)Cc2cnc(N3CCOCC3)nc2)n1 was A: -0.05854%; B: -0.8065%. For Cc1nn(CC(=O)N2CCN(c3cnccn3)CC2)c(C)c1Cl the result was A: 6.1%; B: 15.37%. [H][C@@]12C[C@@H](c3noc(C)n3)O[C@]1([H])CN(C(=O)c1cc(C)nn1CC)C2 gave A: 0.1663%.

CCS(=O)(=O)CCNC(=O)NC(C)c1ccc(C)s1 (configuration not stated) read A: 37.71%; B: 6.234%. CCC(=O)N1CCC2(CCC(N3CCCC3)c3ccccc32)CC1.O=C(O)C(F)(F)F (configuration not stated) gave A: 11.5%. Result for CN1CCC(Cc2noc(CC3CC3)n2)CC1 was A: 23.86%; B: 8.12%. Cc1noc([C@@]23CCO[C@@H]2CCN(C(=O)c2ccsc2)C3)n1 gave B: 3.226%. COc1cc2c(cc1CNC(=O)C(C)n1ccnc1C(C)C)OCCO2 (configuration not stated) read A: -4.321%; B: 1.118%. Result for Cc1ccc2c(c1)[C@@H](CC(=O)N1CCN(C)CC1)CCO2 was A: 2.013% and 16.47%; B: 2.048%. With Cn1cccc1C(=O)N1CCCCC12CC(=O)N(c1cccnc1)C2.O=C(O)C(F)(F)F (configuration not stated) the screen gave A: 4.704%. CCOCCn1nc(C)cc1C(=O)N1CC(C)(C)[C@@](C)(O)C1 gave A: 4.361%; B: 2.533%.

Result for N#Cc1cccc(C(=O)N2C[C@H](CO)C[C@H](CN3CCCC3)C2)c1 was A: -7.492%; B: -0.4894%. Cc1ccc(CN2CCN(CC(=O)Nc3ccc4nsnc4c3)CC2)o1 read A: 19.55%; B: 15.62%. CN(CCO)Cc1nnc(C2CCN(C(=O)c3cccnc3)CC2)n1C read A: 20%; B: 2.679%. With Cc1cnc(N2CCC3(CC2)CC3CN(C)Cc2cccnc2)nc1.O=C(O)C(F)(F)F.O=C(O)C(F)(F)F (configuration not stated) the screen gave A: -15.22% and 5.642%. For Cc1nccn1-c1ccc(NC(=O)C2CCCN2CC2CC2)cc1 (configuration not stated) the result was A: -4.564%; B: 5.433%. O=c1cc(CSc2nnc[nH]2)nc2sc3c(n12)CCCC3 read A: 27.92%; B: 0.8475%. With COc1ccccc1-c1noc(CN2CCCC2Cn2cccn2)n1 (configuration not stated) the screen gave A: 35.03%; B: 7.953%. With Cc1ccsc1C(=O)NCc1cccnc1N(C)CCc1ccccn1 the screen gave A: 23.94%; B: 7.332%.

For Cc1nnc(CN(C)CCc2nc(-c3cccc(Cl)c3)no2)n1C the result was A: -13.81%; B: 2.558%. With Cc1nc(-c2cnn(C)c2)sc1C(=O)NCc1ccc(C)n1C the screen gave A: 12.71%; B: 13.56%. CS(=O)(=O)CCC(=O)NC1CC(c2ccccc2Cl)C1 (configuration not stated) read A: 16.28%; B: 5.492%. With O=c1[nH]c2c(c(=O)n1C1CCCCC1)CCC2Nc1ccccc1 (configuration not stated) the screen gave A: -1.622%; B: 1.211%. CCOCCNC(=O)Nc1cccc(-c2nccn2C)c1 gave A: 9.25%; B: 2.17%. With Fc1ccc(CN2CCC(c3n[nH]c4nccnc34)CC2)cc1F the screen gave A: -2.671%; B: 1.111%.

The last 2 entries again:

Compound	A	B
CCOCCNC(=O)Nc1cccc(-c2nccn2C)c1	9.25%	2.17%
Fc1ccc(CN2CCC(c3n[nH]c4nccnc34)CC2)cc1F	-2.671%	1.111%